Experimental data as given in the supplement of paper PMC12067093, “Discovery and optimisation of a covalent ligand for TRIM25 and its application to targeted protein ubiquitination” (Chemical Science, 2025).
This is one part of the list.
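Also: competitive chemoproteomic profiling in live THP-1 cells with an iodoacetamide desthiobiotin (IA-DTB) probe, comparing probe-labelled peptide intensities in compound-treated cells against DMSO-treated controls.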

Chains of the proteins cited; added tags and fusions are not shown. Lines headed by an entry give the natural chain unless they say otherwise; changes in a name come on top.
UniProt Q9UK99: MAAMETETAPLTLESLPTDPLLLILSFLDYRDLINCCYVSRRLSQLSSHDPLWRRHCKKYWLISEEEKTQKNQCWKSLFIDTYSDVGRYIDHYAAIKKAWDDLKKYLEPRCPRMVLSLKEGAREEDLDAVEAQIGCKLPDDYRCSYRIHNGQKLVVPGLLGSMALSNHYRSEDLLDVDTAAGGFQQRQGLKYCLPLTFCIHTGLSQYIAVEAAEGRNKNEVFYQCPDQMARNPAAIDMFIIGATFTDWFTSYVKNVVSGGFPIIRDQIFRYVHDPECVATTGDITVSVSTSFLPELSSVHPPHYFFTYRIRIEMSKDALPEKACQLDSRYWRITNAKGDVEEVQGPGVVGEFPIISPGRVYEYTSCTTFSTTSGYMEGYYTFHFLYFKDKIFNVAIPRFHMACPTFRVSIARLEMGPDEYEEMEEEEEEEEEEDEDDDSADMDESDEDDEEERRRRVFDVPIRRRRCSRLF
UniProt Q9UKB1: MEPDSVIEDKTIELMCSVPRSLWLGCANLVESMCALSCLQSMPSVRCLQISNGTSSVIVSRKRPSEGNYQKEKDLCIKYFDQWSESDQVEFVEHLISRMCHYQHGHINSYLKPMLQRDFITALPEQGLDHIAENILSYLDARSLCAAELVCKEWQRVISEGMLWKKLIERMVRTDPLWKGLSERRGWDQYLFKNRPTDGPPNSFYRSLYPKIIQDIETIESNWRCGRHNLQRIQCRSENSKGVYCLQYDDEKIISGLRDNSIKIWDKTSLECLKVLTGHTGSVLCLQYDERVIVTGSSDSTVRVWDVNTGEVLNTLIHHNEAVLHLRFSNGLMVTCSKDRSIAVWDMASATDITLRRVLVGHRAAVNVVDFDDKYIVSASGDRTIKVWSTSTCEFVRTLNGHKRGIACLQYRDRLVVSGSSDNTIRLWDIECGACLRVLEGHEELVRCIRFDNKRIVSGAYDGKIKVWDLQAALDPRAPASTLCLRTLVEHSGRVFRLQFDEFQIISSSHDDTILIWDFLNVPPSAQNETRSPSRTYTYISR
UniProt O15360: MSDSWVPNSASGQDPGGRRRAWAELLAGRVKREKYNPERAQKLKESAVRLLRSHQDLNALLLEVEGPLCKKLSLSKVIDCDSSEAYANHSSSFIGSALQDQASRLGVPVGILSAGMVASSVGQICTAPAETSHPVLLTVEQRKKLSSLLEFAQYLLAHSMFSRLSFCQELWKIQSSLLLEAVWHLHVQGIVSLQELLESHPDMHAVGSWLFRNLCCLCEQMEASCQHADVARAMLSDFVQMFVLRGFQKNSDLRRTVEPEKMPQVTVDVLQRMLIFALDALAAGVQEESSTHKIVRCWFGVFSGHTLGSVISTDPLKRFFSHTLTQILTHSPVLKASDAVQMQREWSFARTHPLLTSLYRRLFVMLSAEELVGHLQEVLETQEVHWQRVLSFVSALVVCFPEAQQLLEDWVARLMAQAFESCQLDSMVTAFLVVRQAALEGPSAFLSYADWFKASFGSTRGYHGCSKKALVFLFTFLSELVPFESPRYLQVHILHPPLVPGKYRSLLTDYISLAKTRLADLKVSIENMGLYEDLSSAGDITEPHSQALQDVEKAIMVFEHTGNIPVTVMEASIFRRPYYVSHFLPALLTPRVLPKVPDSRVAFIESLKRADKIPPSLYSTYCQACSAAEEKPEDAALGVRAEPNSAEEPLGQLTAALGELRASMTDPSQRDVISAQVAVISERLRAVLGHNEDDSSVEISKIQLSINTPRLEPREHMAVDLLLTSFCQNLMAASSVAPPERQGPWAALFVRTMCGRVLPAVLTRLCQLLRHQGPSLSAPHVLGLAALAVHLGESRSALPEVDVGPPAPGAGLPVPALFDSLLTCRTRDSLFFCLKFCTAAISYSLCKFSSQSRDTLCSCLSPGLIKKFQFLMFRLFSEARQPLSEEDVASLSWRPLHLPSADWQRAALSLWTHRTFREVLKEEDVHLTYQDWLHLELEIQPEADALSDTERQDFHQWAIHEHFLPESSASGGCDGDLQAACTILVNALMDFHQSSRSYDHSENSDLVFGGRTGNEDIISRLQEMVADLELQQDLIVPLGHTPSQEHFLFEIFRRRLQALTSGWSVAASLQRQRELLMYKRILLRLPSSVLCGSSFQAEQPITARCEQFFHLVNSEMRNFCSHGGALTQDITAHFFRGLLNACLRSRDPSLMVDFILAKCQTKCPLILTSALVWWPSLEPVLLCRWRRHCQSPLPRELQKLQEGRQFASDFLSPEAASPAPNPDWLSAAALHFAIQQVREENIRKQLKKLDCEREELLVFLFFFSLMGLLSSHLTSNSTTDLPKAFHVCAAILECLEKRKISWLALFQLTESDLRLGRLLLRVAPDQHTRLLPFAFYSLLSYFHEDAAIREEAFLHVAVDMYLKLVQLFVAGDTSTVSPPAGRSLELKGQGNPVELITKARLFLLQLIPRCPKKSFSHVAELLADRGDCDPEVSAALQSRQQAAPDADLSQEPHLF
UniProt Q6ZRV2: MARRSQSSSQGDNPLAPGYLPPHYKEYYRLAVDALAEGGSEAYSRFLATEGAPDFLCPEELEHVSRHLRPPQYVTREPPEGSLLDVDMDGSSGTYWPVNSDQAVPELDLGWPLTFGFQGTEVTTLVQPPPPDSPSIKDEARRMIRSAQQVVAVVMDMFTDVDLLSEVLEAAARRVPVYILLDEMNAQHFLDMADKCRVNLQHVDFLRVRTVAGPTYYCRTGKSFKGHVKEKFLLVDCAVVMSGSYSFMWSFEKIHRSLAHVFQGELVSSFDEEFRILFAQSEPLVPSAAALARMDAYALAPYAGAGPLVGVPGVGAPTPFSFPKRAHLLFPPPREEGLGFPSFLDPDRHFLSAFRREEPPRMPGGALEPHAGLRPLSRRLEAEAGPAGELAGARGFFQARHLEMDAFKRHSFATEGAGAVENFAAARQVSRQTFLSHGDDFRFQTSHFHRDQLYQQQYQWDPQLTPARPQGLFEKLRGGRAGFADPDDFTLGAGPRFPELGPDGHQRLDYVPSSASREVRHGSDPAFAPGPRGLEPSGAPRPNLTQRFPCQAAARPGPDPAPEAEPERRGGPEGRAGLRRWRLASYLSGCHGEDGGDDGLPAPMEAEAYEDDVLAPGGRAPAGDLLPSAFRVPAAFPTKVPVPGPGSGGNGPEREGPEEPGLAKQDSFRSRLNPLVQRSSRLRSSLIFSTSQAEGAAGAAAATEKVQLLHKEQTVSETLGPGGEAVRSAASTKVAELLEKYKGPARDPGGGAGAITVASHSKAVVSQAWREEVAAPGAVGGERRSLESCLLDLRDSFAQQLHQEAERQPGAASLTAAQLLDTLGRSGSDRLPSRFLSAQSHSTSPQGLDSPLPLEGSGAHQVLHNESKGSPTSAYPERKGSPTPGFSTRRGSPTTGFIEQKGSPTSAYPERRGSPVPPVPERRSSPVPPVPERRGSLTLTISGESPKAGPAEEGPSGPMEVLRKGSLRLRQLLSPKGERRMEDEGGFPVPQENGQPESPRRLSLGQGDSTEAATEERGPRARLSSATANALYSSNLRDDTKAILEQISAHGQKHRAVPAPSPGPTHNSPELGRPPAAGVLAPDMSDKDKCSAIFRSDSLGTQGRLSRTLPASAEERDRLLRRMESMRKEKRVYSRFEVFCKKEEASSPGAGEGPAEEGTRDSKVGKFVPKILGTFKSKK
UniProt Q5VWN6: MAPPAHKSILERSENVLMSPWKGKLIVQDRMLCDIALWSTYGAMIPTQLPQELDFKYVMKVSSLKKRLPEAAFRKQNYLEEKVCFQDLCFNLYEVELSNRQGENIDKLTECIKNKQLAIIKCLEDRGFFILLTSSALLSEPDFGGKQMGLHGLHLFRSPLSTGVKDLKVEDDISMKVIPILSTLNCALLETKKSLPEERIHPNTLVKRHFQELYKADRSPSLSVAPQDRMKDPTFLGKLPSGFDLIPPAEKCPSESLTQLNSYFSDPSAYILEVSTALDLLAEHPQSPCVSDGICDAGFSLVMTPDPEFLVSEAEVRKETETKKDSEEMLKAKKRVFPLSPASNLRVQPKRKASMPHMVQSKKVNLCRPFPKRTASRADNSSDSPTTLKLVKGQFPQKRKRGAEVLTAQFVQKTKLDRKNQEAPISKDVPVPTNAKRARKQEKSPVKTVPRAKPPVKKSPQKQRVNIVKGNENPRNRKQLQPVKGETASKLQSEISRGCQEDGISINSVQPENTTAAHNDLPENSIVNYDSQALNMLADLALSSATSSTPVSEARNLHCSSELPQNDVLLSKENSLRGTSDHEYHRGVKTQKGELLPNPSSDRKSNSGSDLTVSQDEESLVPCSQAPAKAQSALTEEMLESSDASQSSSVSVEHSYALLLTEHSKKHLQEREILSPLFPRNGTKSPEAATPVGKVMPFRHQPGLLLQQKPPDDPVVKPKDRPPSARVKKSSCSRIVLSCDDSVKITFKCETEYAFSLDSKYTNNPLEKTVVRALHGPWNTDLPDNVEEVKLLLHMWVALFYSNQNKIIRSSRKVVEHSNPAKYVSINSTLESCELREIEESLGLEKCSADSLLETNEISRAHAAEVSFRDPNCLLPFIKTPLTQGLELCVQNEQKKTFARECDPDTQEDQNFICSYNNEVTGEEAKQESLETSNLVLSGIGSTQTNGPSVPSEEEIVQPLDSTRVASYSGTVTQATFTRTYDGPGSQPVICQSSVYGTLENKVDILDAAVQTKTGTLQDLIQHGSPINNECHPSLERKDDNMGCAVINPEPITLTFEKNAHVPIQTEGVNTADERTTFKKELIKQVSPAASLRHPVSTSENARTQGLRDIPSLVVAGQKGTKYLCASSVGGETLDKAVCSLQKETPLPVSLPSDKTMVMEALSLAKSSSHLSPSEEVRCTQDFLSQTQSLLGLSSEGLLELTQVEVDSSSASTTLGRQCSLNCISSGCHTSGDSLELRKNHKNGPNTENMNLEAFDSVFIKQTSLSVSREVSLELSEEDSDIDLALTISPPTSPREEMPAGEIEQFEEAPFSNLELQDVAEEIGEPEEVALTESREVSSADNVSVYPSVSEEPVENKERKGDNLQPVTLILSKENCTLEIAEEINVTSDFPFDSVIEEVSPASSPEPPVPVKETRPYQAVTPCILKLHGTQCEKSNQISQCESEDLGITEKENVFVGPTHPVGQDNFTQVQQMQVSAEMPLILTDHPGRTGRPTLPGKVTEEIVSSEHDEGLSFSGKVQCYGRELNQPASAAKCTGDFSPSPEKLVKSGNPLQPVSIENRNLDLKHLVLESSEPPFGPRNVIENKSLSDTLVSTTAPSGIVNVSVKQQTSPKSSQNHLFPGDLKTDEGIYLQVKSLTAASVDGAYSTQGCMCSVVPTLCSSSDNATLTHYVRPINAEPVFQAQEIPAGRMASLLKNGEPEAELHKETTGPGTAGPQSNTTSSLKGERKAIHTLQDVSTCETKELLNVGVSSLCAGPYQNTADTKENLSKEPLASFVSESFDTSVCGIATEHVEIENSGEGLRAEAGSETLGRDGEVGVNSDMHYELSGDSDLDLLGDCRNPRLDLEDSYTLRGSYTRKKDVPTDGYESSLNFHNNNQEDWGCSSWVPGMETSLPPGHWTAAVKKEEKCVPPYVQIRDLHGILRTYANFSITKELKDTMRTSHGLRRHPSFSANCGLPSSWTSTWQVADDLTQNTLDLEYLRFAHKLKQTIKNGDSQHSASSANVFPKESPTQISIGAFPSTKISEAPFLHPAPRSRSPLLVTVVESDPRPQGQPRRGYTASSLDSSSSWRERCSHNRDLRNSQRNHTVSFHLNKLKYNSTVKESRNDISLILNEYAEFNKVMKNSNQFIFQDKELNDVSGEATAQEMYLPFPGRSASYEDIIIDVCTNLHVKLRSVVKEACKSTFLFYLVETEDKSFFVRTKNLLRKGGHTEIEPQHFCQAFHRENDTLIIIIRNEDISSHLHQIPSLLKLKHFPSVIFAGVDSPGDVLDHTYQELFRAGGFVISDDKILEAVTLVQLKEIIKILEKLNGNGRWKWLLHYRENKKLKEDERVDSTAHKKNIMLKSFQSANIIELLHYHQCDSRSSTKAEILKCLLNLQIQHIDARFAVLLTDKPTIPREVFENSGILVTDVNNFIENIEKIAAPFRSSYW
UniProt Q5HYJ3: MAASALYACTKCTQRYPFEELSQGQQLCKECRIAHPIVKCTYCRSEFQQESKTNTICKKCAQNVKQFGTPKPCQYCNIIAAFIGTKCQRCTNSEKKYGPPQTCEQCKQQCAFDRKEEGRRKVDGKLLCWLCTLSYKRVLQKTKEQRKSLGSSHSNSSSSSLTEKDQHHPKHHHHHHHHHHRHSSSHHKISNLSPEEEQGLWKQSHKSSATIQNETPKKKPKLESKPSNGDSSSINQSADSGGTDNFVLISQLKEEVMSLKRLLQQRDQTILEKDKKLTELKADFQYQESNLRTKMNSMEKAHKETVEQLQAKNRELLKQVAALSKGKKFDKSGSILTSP

These targets were tested with CC1Cc2ccccc2N1C(=O)C1CCCN(C1)C(=O)CCl (mixture of isomers) [TRIM25 ligand 11 (diastereomer mixture)] (assay: probe-labelled cysteine peptide fold change vs DMSO (competition) (log2 fold change); higher = less target engagement (more negative = stronger competition)). Conditions: 10 µM; THP-1; incubation time: 4 h.
For “FAR2_Q96K12_111_EDMQELLSCTNIIFHCAATVR (UniProt Q96K12)”, the “probe-labelled cysteine peptide fold change” value was 0.285.
“FBXO3_Q9UK99_403_FHMACPTFR (UniProt Q9UK99)” was tested, and the “probe-labelled cysteine peptide fold change” value was -0.0056.
In the case of “FAR2_Q96K12_313_STLVYHITSGNMNPCNWHK (UniProt Q96K12)”, the “probe-labelled cysteine peptide fold change” value is reported as 0.0268.
For “FAR2_Q96K12_104_EDMQELLSCTNIIFHCAATVR (UniProt Q96K12)”, the “probe-labelled cysteine peptide fold change” value was 0.462.
For “FBXO30_Q8TB52_570_FCPSIQGAK (UniProt Q8TB52)”, the “probe-labelled cysteine peptide fold change” value was 0.0884.
With “FAM160A2_Q8N612_927_NAVYCAVIFPEFLK (UniProt Q8N612)” the “probe-labelled cysteine peptide fold change” value was 0.127.
For “FBXL19_Q6PCT2_644_LTDHCLPLFR (UniProt Q6PCT2)”, the “probe-labelled cysteine peptide fold change” value was -0.154.
With “FANCI_Q9NVI1_650_LEACILTQGDK (UniProt Q9NVI1)” the “probe-labelled cysteine peptide fold change” value was 0.264.
“FAM234A_Q9H0X4_285_TGAHYILFPCASSLCGCSVK (UniProt Q9H0X4)” was tested, and the “probe-labelled cysteine peptide fold change” value was 0.152.
With “FBXL20_Q96IG2_364_HLGNGACAHDQLEVIELDNCPLITDASLEHLK (UniProt Q96IG2)” the “probe-labelled cysteine peptide fold change” value was -0.0816.
For “FASN_P49327_223_AFDTAGNGYCR (UniProt P49327)”, the “probe-labelled cysteine peptide fold change” value was 0.027.
For “FAM126B_Q8IXS8_7_CVVEEWLSEFK (UniProt Q8IXS8)”, the “probe-labelled cysteine peptide fold change” value was 0.0412.
With “FBXW11_Q9UKB1_484_APASTLCLR (UniProt Q9UKB1)” the “probe-labelled cysteine peptide fold change” value was 0.102.
In the case of “FAM98B_Q52LJ0_216+220_INDALSCEYECR (UniProt Q52LJ0)”, the “probe-labelled cysteine peptide fold change” value is reported as -0.033.
“FARSA_Q9Y285_493_VNLQMVYDSPLCR (UniProt Q9Y285)” was tested, and the “probe-labelled cysteine peptide fold change” value was -0.0524.
For “FANCA_O15360_1120_NFCSHGGALTQDITAHFFR (UniProt O15360)”, the “probe-labelled cysteine peptide fold change” value was -0.00684.
For “FEM1A_Q9BSK4_190_GNTALHDCAESGSLEILQLLLGCK (UniProt Q9BSK4)”, the “probe-labelled cysteine peptide fold change” value was 0.0659.
For “FECH_P22830_403_QLTLSCPLCVNPVCR (UniProt P22830)”, the “probe-labelled cysteine peptide fold change” value was 0.0323.
In the case of “FAM91A1_Q658Y4_750_IAAHGLCR (UniProt Q658Y4)”, the “probe-labelled cysteine peptide fold change” value is reported as 0.025.
With “FAR2_Q96K12_170_HIDEVIYPCPVEPK (UniProt Q96K12)” the “probe-labelled cysteine peptide fold change” value was 0.0704.
In the case of “FBXO45_P0C2W1_119_AFQHAFSTNDCSR (UniProt P0C2W1)”, the “probe-labelled cysteine peptide fold change” value is reported as 0.166.
With “FANCL_Q9NW38_251_HPTMLPECFFLGADHVVK (UniProt Q9NW38)” the “probe-labelled cysteine peptide fold change” value was 0.115.
For “FAM83H_Q6ZRV2_57_FLATEGAPDFLCPEELEHVSR (UniProt Q6ZRV2)”, the “probe-labelled cysteine peptide fold change” value was 0.0919.
“FARSB_Q9NSD9_418_HDMAAAGFTEALTFALCSQEDIADK (UniProt Q9NSD9)” was tested, and the “probe-labelled cysteine peptide fold change” value was -0.0351.
“FES_P07332_785_LPCPELCPDAVFR (UniProt P07332)” was tested, and the “probe-labelled cysteine peptide fold change” value was 0.101.
“FES_P07332_372_QVLQEALQGLQVALCSQAK (UniProt P07332)” was tested, and the “probe-labelled cysteine peptide fold change” value was 0.022.
For “FBN2_P35556_98_FHSYCCPGWK (UniProt P35556)”, the “probe-labelled cysteine peptide fold change” value was 0.0697.
With “FARSB_Q9NSD9_498_HLCAVYYNK (UniProt Q9NSD9)” the “probe-labelled cysteine peptide fold change” value was 0.0584.
With “FAM136A_Q96C01_82_CTMHCNDK (UniProt Q96C01)” the “probe-labelled cysteine peptide fold change” value was -0.196.
“FBXO30_Q8TB52_592_SFGVQPCVSTVLVEPAR (UniProt Q8TB52)” was tested, and the “probe-labelled cysteine peptide fold change” value was 0.0321.
“FBXO30_Q8TB52_396_NVDVLSFSHAPSFNFLSNSCWSK (UniProt Q8TB52)” was tested, and the “probe-labelled cysteine peptide fold change” value was -0.0439.
For “FAM208A_Q9UK61_601_SHIDTCLHAYIFRPEVYQLPICK (UniProt Q9UK61)”, the “probe-labelled cysteine peptide fold change” value was -0.0257.
In the case of “FAM208B_Q5VWN6_1432_LHGTQCEK (UniProt Q5VWN6)”, the “probe-labelled cysteine peptide fold change” value is reported as -0.0874.
For “FASN_P49327_630_EAHLPPGAMAAVGLSWEECK (UniProt P49327)”, the “probe-labelled cysteine peptide fold change” value was 0.0913.
“FBXO38_Q6PIJ6_242_NCAGPTNSLK (UniProt Q6PIJ6)” was tested, and the “probe-labelled cysteine peptide fold change” value was 0.0457.
For “FBXL12_Q9NXK8_155_QQDPTVLPLLECIVLDRVPAFR (UniProt Q9NXK8)”, the “probe-labelled cysteine peptide fold change” value was -0.0917.
For “FAM76B_Q5HYJ3_73+76_PCQYCNIIAAFIGTK (UniProt Q5HYJ3)”, the “probe-labelled cysteine peptide fold change” value was -0.358.
“FAM208B_Q5VWN6_1441_SNQISQCESEDLGITEK (UniProt Q5VWN6)” was tested, and the “probe-labelled cysteine peptide fold change” value was 0.0807.

Same assay, conditions: 50 µM; THP-1; incubation time: 4 h
With “FAR2_Q96K12_111_EDMQELLSCTNIIFHCAATVR (UniProt Q96K12)” the “probe-labelled cysteine peptide fold change” value was 0.135.
In the case of “FBXO3_Q9UK99_403_FHMACPTFR (UniProt Q9UK99)”, the “probe-labelled cysteine peptide fold change” value is reported as -0.132.
In the case of “FAR2_Q96K12_313_STLVYHITSGNMNPCNWHK (UniProt Q96K12)”, the “probe-labelled cysteine peptide fold change” value is reported as -0.105.
In the case of “FAR2_Q96K12_104_EDMQELLSCTNIIFHCAATVR (UniProt Q96K12)”, the “probe-labelled cysteine peptide fold change” value is reported as 0.343.
In the case of “FBXO30_Q8TB52_570_FCPSIQGAK (UniProt Q8TB52)”, the “probe-labelled cysteine peptide fold change” value is reported as 0.123.
“FAM160A2_Q8N612_927_NAVYCAVIFPEFLK (UniProt Q8N612)” was tested, and the “probe-labelled cysteine peptide fold change” value was 0.429.
For “FBXL19_Q6PCT2_644_LTDHCLPLFR (UniProt Q6PCT2)”, the “probe-labelled cysteine peptide fold change” value was -0.18.
For “FANCI_Q9NVI1_650_LEACILTQGDK (UniProt Q9NVI1)”, the “probe-labelled cysteine peptide fold change” value was 0.0585.
In the case of “FAM234A_Q9H0X4_285_TGAHYILFPCASSLCGCSVK (UniProt Q9H0X4)”, the “probe-labelled cysteine peptide fold change” value is reported as -0.103.
With “FBXL20_Q96IG2_364_HLGNGACAHDQLEVIELDNCPLITDASLEHLK (UniProt Q96IG2)” the “probe-labelled cysteine peptide fold change” value was 0.115.
“FASN_P49327_223_AFDTAGNGYCR (UniProt P49327)” was tested, and the “probe-labelled cysteine peptide fold change” value was 0.0842.
“FAM126B_Q8IXS8_7_CVVEEWLSEFK (UniProt Q8IXS8)” was tested, and the “probe-labelled cysteine peptide fold change” value was -0.14.
With “FBXW11_Q9UKB1_484_APASTLCLR (UniProt Q9UKB1)” the “probe-labelled cysteine peptide fold change” value was 0.263.
For “FAM98B_Q52LJ0_216+220_INDALSCEYECR (UniProt Q52LJ0)”, the “probe-labelled cysteine peptide fold change” value was -0.0928.
“FARSA_Q9Y285_493_VNLQMVYDSPLCR (UniProt Q9Y285)” was tested, and the “probe-labelled cysteine peptide fold change” value was -0.00472.
“FANCA_O15360_1120_NFCSHGGALTQDITAHFFR (UniProt O15360)” was tested, and the “probe-labelled cysteine peptide fold change” value was 0.235.
With “FEM1A_Q9BSK4_190_GNTALHDCAESGSLEILQLLLGCK (UniProt Q9BSK4)” the “probe-labelled cysteine peptide fold change” value was -0.104.
With “FECH_P22830_403_QLTLSCPLCVNPVCR (UniProt P22830)” the “probe-labelled cysteine peptide fold change” value was 0.0221.
For “FAM91A1_Q658Y4_750_IAAHGLCR (UniProt Q658Y4)”, the “probe-labelled cysteine peptide fold change” value was 0.13.
With “FAR2_Q96K12_170_HIDEVIYPCPVEPK (UniProt Q96K12)” the “probe-labelled cysteine peptide fold change” value was 0.0219.
In the case of “FBXO45_P0C2W1_119_AFQHAFSTNDCSR (UniProt P0C2W1)”, the “probe-labelled cysteine peptide fold change” value is reported as 0.0956.
With “FANCL_Q9NW38_251_HPTMLPECFFLGADHVVK (UniProt Q9NW38)” the “probe-labelled cysteine peptide fold change” value was 0.0139.
With “FAM83H_Q6ZRV2_57_FLATEGAPDFLCPEELEHVSR (UniProt Q6ZRV2)” the “probe-labelled cysteine peptide fold change” value was -0.0291.
“FARSB_Q9NSD9_418_HDMAAAGFTEALTFALCSQEDIADK (UniProt Q9NSD9)” was tested, and the “probe-labelled cysteine peptide fold change” value was -0.0054.
In the case of “FES_P07332_785_LPCPELCPDAVFR (UniProt P07332)”, the “probe-labelled cysteine peptide fold change” value is reported as -0.156.
In the case of “FES_P07332_372_QVLQEALQGLQVALCSQAK (UniProt P07332)”, the “probe-labelled cysteine peptide fold change” value is reported as -0.126.
In the case of “FBN2_P35556_98_FHSYCCPGWK (UniProt P35556)”, the “probe-labelled cysteine peptide fold change” value is reported as 0.354.
In the case of “FARSB_Q9NSD9_498_HLCAVYYNK (UniProt Q9NSD9)”, the “probe-labelled cysteine peptide fold change” value is reported as 0.0475.
With “FAM136A_Q96C01_82_CTMHCNDK (UniProt Q96C01)” the “probe-labelled cysteine peptide fold change” value was 0.0556.
With “FBXO30_Q8TB52_592_SFGVQPCVSTVLVEPAR (UniProt Q8TB52)” the “probe-labelled cysteine peptide fold change” value was -0.0298.
For “FBXO30_Q8TB52_396_NVDVLSFSHAPSFNFLSNSCWSK (UniProt Q8TB52)”, the “probe-labelled cysteine peptide fold change” value was -0.2.
“FAM208A_Q9UK61_601_SHIDTCLHAYIFRPEVYQLPICK (UniProt Q9UK61)” was tested, and the “probe-labelled cysteine peptide fold change” value was -0.066.
“FAM208B_Q5VWN6_1432_LHGTQCEK (UniProt Q5VWN6)” was tested, and the “probe-labelled cysteine peptide fold change” value was -0.193.
In the case of “FASN_P49327_630_EAHLPPGAMAAVGLSWEECK (UniProt P49327)”, the “probe-labelled cysteine peptide fold change” value is reported as 0.284.
“FBXO38_Q6PIJ6_242_NCAGPTNSLK (UniProt Q6PIJ6)” was tested, and the “probe-labelled cysteine peptide fold change” value was 0.232.
For “FBXL12_Q9NXK8_155_QQDPTVLPLLECIVLDRVPAFR (UniProt Q9NXK8)”, the “probe-labelled cysteine peptide fold change” value was 0.296.
In the case of “FAM76B_Q5HYJ3_73+76_PCQYCNIIAAFIGTK (UniProt Q5HYJ3)”, the “probe-labelled cysteine peptide fold change” value is reported as 0.0932.
For “FAM208B_Q5VWN6_1441_SNQISQCESEDLGITEK (UniProt Q5VWN6)”, the “probe-labelled cysteine peptide fold change” value was -0.0487.
